Data reported in doi:10.1101/2025.09.03.674114.

Chains of the proteins cited; added tags and fusions are not shown.
UniProt Q5S007: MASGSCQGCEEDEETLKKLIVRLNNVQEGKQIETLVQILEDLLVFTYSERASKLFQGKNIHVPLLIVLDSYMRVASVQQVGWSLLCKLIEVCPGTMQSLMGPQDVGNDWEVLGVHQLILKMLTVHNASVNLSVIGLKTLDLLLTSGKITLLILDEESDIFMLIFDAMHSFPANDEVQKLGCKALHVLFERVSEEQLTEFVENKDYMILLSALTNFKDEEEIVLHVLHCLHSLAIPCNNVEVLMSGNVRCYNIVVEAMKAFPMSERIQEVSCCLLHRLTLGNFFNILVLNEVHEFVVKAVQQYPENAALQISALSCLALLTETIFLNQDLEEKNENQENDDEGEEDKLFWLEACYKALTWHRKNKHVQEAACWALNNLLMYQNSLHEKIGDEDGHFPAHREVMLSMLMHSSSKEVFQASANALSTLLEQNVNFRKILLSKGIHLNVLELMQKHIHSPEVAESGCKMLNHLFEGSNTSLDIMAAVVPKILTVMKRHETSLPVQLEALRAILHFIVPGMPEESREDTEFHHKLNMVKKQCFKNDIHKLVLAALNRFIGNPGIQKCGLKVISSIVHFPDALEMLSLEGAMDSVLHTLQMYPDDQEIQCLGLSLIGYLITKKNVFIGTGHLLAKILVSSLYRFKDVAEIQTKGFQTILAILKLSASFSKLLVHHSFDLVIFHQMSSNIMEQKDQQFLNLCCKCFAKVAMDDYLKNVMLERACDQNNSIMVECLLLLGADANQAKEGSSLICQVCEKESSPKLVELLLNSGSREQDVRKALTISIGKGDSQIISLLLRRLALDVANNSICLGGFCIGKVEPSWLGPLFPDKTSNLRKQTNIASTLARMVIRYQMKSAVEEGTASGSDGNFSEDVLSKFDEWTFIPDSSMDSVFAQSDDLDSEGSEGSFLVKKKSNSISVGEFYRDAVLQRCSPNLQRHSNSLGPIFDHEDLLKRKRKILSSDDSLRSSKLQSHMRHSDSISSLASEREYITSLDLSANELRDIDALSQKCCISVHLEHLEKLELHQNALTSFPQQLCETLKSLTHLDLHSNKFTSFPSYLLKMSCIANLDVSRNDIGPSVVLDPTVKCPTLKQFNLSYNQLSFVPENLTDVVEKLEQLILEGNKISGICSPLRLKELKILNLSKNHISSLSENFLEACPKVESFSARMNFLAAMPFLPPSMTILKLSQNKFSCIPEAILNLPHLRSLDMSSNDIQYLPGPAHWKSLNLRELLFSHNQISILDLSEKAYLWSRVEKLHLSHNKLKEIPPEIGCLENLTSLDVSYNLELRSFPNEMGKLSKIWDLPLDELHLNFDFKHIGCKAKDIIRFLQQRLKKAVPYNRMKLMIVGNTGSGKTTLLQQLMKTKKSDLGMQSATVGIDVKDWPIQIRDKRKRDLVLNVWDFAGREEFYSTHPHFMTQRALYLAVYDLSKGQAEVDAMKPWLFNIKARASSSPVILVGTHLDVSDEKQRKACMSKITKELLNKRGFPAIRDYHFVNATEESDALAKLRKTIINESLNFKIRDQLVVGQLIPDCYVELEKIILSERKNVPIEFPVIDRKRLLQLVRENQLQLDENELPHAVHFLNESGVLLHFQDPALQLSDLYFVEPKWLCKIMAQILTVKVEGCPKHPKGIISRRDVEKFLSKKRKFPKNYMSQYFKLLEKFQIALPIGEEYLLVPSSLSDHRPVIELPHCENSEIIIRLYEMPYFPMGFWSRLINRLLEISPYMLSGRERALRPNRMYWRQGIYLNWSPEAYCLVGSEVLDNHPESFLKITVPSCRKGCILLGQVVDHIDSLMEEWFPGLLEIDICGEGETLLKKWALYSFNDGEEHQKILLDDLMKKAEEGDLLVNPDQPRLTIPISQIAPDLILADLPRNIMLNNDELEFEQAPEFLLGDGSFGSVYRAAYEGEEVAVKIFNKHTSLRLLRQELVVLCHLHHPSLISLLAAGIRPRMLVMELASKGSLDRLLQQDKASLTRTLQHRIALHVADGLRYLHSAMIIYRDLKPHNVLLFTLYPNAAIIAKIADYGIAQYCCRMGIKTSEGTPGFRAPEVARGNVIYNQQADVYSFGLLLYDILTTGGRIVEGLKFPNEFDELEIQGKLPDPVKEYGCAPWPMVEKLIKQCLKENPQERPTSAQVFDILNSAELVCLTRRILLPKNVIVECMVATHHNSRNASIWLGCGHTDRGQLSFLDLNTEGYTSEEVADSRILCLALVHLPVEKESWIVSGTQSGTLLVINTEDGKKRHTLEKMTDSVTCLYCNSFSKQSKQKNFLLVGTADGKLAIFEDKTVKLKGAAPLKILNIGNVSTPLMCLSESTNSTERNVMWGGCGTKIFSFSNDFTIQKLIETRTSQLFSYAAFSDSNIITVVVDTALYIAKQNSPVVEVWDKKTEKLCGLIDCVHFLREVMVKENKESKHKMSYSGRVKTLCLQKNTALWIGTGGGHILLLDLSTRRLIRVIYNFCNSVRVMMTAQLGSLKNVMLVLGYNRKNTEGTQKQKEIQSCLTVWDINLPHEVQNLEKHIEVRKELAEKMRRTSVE
UniProt Q02224: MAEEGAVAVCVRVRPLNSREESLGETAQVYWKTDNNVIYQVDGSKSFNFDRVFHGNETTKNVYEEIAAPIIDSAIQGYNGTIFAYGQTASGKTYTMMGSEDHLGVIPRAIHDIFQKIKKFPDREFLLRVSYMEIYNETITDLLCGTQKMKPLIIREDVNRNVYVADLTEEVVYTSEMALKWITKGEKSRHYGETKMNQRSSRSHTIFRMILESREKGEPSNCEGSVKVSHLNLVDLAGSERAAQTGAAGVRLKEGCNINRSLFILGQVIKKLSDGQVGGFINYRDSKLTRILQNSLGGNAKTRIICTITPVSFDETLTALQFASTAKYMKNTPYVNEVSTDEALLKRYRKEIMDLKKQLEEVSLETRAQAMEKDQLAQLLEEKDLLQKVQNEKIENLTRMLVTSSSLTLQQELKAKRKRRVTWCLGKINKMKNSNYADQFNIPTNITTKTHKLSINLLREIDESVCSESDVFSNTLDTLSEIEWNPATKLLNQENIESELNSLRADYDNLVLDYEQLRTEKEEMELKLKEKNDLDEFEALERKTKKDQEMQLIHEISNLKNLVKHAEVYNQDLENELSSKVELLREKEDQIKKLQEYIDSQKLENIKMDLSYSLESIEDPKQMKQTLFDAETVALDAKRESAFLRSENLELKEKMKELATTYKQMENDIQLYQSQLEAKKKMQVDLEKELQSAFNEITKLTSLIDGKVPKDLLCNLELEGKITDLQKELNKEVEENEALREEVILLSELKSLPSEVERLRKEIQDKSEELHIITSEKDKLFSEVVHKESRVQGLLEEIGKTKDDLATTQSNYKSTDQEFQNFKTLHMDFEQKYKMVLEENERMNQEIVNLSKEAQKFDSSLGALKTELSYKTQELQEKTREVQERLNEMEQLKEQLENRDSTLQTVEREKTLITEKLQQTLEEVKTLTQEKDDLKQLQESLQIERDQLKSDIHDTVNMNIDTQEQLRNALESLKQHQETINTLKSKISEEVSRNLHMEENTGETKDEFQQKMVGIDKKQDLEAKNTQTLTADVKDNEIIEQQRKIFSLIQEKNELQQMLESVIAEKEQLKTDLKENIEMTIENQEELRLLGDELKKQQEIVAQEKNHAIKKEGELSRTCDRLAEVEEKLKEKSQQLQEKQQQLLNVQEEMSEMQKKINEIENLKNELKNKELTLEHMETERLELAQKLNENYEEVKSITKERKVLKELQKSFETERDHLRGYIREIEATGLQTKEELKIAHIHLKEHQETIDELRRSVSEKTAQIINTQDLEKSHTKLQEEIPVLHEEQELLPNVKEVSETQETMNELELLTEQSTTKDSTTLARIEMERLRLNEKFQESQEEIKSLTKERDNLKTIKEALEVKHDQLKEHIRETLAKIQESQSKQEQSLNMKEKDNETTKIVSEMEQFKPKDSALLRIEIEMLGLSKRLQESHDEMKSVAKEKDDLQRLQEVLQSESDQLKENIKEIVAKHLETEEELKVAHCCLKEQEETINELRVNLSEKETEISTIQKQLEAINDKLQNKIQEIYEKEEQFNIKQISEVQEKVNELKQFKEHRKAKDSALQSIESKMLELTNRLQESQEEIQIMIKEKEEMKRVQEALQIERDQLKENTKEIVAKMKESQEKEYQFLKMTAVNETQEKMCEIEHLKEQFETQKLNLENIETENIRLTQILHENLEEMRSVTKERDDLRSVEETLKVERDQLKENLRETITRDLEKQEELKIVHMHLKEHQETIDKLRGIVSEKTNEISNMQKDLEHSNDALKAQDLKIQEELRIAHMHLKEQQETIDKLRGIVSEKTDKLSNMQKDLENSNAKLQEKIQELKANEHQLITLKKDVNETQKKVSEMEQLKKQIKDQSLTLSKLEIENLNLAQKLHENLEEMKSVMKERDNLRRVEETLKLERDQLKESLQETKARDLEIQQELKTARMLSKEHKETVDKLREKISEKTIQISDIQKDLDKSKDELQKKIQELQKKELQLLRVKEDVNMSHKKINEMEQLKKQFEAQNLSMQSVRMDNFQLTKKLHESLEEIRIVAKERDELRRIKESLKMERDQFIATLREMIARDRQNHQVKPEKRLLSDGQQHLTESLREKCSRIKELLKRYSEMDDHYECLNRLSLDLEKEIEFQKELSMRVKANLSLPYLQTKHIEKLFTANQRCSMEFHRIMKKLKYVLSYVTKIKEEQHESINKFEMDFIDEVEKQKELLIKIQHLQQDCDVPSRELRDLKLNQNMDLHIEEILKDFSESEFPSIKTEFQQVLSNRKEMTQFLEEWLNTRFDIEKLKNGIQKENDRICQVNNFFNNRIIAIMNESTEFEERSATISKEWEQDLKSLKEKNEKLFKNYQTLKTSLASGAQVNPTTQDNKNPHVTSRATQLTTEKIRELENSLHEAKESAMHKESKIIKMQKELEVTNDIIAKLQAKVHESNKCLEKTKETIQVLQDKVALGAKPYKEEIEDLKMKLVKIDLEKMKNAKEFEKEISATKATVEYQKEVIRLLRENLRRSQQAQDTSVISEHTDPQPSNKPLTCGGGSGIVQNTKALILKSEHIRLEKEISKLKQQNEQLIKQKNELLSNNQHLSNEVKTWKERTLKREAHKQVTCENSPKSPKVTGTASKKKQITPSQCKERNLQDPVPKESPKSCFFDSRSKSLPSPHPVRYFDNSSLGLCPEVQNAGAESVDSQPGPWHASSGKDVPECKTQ
UniProt P53618: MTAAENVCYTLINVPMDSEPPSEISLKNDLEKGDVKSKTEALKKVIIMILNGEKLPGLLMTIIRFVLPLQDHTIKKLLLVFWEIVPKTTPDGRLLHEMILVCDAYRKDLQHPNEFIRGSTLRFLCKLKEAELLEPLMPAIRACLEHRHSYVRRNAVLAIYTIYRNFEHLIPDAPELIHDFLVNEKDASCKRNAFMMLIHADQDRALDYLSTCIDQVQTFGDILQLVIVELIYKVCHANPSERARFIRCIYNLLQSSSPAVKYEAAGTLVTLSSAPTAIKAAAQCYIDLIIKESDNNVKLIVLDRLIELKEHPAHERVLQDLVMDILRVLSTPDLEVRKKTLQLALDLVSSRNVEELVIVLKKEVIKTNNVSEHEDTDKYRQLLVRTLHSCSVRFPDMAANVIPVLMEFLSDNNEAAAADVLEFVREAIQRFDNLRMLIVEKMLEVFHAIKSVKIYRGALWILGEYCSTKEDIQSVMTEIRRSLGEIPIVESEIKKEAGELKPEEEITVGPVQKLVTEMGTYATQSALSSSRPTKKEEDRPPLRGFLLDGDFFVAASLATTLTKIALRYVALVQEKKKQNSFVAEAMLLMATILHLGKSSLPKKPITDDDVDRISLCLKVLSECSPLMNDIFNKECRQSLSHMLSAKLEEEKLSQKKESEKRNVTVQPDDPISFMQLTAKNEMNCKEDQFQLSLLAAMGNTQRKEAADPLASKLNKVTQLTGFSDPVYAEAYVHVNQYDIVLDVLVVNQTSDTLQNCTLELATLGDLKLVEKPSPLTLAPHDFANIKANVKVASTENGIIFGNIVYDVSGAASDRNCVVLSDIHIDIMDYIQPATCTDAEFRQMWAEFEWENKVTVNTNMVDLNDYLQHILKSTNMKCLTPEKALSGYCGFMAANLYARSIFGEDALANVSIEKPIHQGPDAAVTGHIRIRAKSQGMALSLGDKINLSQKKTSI
UniProt Q92572: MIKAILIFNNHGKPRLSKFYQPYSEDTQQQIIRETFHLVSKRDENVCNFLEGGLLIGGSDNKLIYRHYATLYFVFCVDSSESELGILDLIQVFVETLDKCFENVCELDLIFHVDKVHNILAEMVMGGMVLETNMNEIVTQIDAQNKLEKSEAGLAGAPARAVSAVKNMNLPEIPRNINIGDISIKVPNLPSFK

B1: AP3M2 (protein, UniProt P53677 1-418)
chain: MIHSLFLINSSGDIFLEKHWKSVVSRSVCDYFFEAQERATEAENVPPVIPTPHHYLLSVYRHKIFFVAVIQTEVPPLFVIEFLHRVVDTFQDYFGVCSEPVIKDNVVVVYEVLEEMLDNGFPLATESNILKELIKPPTILRTVVNTITGSTNVGDQLPTGQLSVVPWRRTGVKYTNNEAYFDVIEEIDAIIDKSGSTITAEIQGVIDACVKLTGMPDLTLSFMNPRLLDDVSFHPCVRFKRWESERILSFIPPDGNFRLLSYHVSAQNLVAIPVYVKHNISFRDSSSLGRFEITVGPKQTMGKTIEGVTVTSQMPKGVLNMSLTPSQGTHTFDPVTKMLSWDVGKINPQKLPSLKGTMSLQAGASKPDENPTINLQFKIQQLAISGLKVNRLDMYGEKYKPFKGIKYMTKAGKFQVRT
B2: Kif24 (protein, UniProt Q5T7B8 1-1368)
chain: MASWLYECLCEAELAQYYSHFTALGLQKIDELAKITMKDYSKLGVHDMNDRKRLFQLIKIIKIMQEEDKAVSIPERHLQTSSLRIKSQELRSGPRRQLNFDSPADNKDRNASNDGFEMCSLSDFSANEQKSTYLKVLEHMLPDDSQYHTKTGILNATAGDSYVQTEISTSLFSPNYLSAILGDCDIPIIQRISHVSGYNYGIPHSCIRQNTSEKQNPWTEMEKIRVCVRKRPLGMREVRRGEINIITVEDKETLLVHEKKEAVDLTQYILQHVFYFDEVFGEACTNQDVYMKTTHPLIQHIFNGGNATCFAYGQTGAGKTYTMIGTHENPGLYALAAKDIFRQLEVSQPRKHLFVWISFYEIYCGQLYDLLNRRKRLFAREDSKHMVQIVGLQELQVDSVELLLEVILKGSKERSTGATGVNADSSRSHAVIQIQIKDSAKRTFGRISFIDLAGSERAADARDSDRQTKMEGAEINQSLLALKECIRALDQEHTHTPFRQSKLTQVLKDSFIGNAKTCMIANISPSHVATEHTLNTLRYADRVKELKKGIKCCTSVTSRNRTSGNSSPKRIQSSPGALSEDKCSPKKVKLGFQQSLTVAAPGSTRGKVHPLTSHPPNIPFTSAPKVSGKRGGSRGSPSQEWVIHASPVKGTVRSGHVAKKKPEESAPLCSEKNRMGNKTVLGWESRASGPGEGLVRGKLSTKCKKVQTVQPVQKQLVSRVELSFGNAHHRAEYSQDSQRGTPARPASEAWTNIPPHQKEREEHLRFYHQQFQQPPLLQQKLKYQPLKRSLRQYRPPEGQLTNETPPLFHSYSENHDGAQVEELDDSDFSEDSFSHISSQRATKQRNTLENSEDSFFLHQTWGQGPEKQVAERQQSLFSSPRTGDKKDLTKSWVDSRDPINHRRAALDHSCSPSKGPVDWSRENSTSSGPSPRDSLAEKPYCSQVDFIYRQERGGGSSFDLRKDASQSEVSGENEGNLPSPEEDGFTISLSHVAVPGSPDQRDTVTTPLREVSADGPIQVTSTVKNGHAVPGEDPRGQLGTHAEYASGLMSPLTMSLLENPDNEGSPPSEQLVQDGATHSLVAESTGGPVVSHTVPSGDQEAALPVSSATRHLWLSSSPPDNKPGGDLPALSPSPIRQHPADKLPSREADLGEACQSRETVLFSHEHMGSEQYDADAEETGLDGSWGFPGKPFTTIHMGVPHSGPTLTPRTGSSDVADQLWAQERKHPTRLGWQEFGLSTDPIKLPCNSENVTWLKPRPISRCLARPSSPLVPSCSPKTAGTLRQPTLEQAQQVVIRAHQEQLDEMAELGFKEETLMSQLASNDFEDFVTQLDEIMVLKSKCIQSLRSQLQLYLTCHGPTAAPEGTVPS
B3: Vps50 (protein, UniProt Q96JG6 1-964)
chain: MQKIKSLMTRQGLKSPQESLSDLGAIESLRVPGKEEFRELREQPSDPQAEQELINSIEQVYFSVDSFDIVKYELEKLPPVLNLQELEAYRDKLKQQQAAVSKKVADLILEKQPAYVKELERVTSLQTGLQLAAVICTNGRRHLNIAKEGFTQASLGLLANQRKRQLLIGLLKSLRTIKTLQRTDVRLSEMLEEEDYPGAIQLCLECQKAASTFKHYSCISELNSKLQDTLEQIEEQLDVALSKICKNFDINHYTKVQQAYRLLGKTQTAMDQLHMHFTQAIHNTVFQVVLGYVELCAGNTDTKFQKLQYKDLCTHVTPDSYIPCLADLCKALWEVMLSYYRTMEWHEKHDNEDTASASEGSNMIGTEETNFDRGYIKKKLEHGLTRIWQDVQLKVKTYLLGTDLSIFKYDDFIFVLDIISRLMQVGEEFCGSKSEVLQESIRKQSVNYFKNYHRTRLDELRMFLENETWELCPVKSNFSILQLHEFKFMEQSRSPSVSPSKQPVSTSSKTVTLFEQYCSGGNPFEIQANHKDEETEDVLASNGYESDEQEKSAYQEYDSDSDVPEELKRDYVDEQTGDGPVKSVSRETLKSRKKSDYSLNKVNAPILTNTTLNVIRLVGKYMQMMNILKPIAFDVIHFMSQLFDYYLYAIYTFFGRNDSLESTGLGLSSSRLRTTLNRIQESLIDLEVSADPTATLTAAEERKEKVPSPHLSHLVVLTSGDTLYGLAERVVATESLVFLAEQFEFLQPHLDAVMPAVKKPFLQQFYSQTVSTASELRKPIYWIVAGKALDYEQMLLLMANVKWDVKEIMSQHNIYVDALLKEFEQFNRRLNEVSKRVRIPLPVSNILWEHCIRLANRTIVEGYANVKKCSNEGRALMQLDFQQFLMKLEKLTDIRPIPDKEFVETYIKAYYLTENDMERWIKEHREYSTKQLTNLVNVCLGSHINKKARQKLLAAIDDIDRPKR
B4: Vps51 (protein, UniProt Q9UID3 1-782)
chain: MAAAAAAGPSPGSGPGDSPEGPEGEAPERRRKAHGMLKLYYGLSEGEAAGRPAGPDPLDPTDLNGAHFDPEVYLDKLRRECPLAQLMDSETDMVRQIRALDSDMQTLVYENYNKFISATDTIRKMKNDFRKMEDEMDRLATNMAVITDFSARISATLQDRHERITKLAGVHALLRKLQFLFELPSRLTKCVELGAYGQAVRYQGRAQAVLQQYQHLPSFRAIQDDCQVITARLAQQLRQRFREGGSGAPEQAECVELLLALGEPAEELCEEFLAHARGRLEKELRNLEAELGPSPPAPDVLEFTDHGGSGFVGGLCQVAAAYQELFAAQGPAGAEKLAAFARQLGSRYFALVERRLAQEQGGGDNSLLVRALDRFHRRLRAPGALLAAAGLADAATEIVERVARERLGHHLQGLRAAFLGCLTDVRQALAAPRVAGKEGPGLAELLANVASSILSHIKASLAAVHLFTAKEVSFSNKPYFRGEFCSQGVREGLIVGFVHSMCQTAQSFCDSPGEKGGATPPALLLLLSRLCLDYETATISYILTLTDEQFLVQDQFPVTPVSTLCAEARETARRLLTHYVKVQGLVISQMLRKSVETRDWLSTLEPRNVRAVMKRVVEDTTAIDVQVGLLYEEGVRKAQSSDSSKRTFSVYSSSRQQGRYAPSYTPSAPMDTNLLSNIQKLFSERIDVFSPVEFNKVSVLTGIIKISLKTLLECVRLRTFGRFGLQQVQVDCHFLQLYLWRFVADEELVHLLLDEVVASAALRCPDPVPMEPSVVEVICERG

Target: 3xFLAG-turboID-LRRK2 (Leucine-rich repeat kinase 2) (UniProt Q5S007)
Assay: proximity labelling

binding	Molecule
binds	CENPE (from UniProt Q02224 1-2701)
binds	MICALL2 (from UniProt Q8IY33 1-904)
binds	COPB1 (from UniProt P53618 1-953)
binds	AP3S1 (from UniProt Q92572 1-193)
binds	MACF1 (from UniProt Q9UPN3 1-7388)
binds	B1
binds	B2
binds	B3
binds	B4

These are yes or no findings as the source states them, for the method shown. In cells and extracts the contact can be indirect. These calls come from enrichment with a bait or labelling near it, and not all partners need be listed.
